In patent US5876694A, “Azavesamicols” (priority 1997, dated 1999):
For at least one compound, name, drawing or mass did not settle the structure.

Columns and labels:
[1] = tested on: alpha-adrenoceptor; conditions: Estrella et al., 1988; cited from earlier work
[2] = tested on: vesamicol receptor; conditions: earlier studies; cited from earlier work
[3] = tested on: vesicular ACh transport; conditions: earlier studies; cited from earlier work
[4] = tested on: cholinergic neurotransmission; experiment: In vivo anticholinergic activity in mice (spasms, respiratory distress, paralysis, death); conditions: even at 80 umol/Kg ip
Procedure: in vivo anticholinergic activity was evaluated in mice. Blockade of cholinergic neurotransmission (or anticholinergic activity) was manifested in a rapidly developing respiratory distress, spasms and paralysis. At lethal doses these symptoms were followed by death within 10 min. As evident in Table 3, several of the compounds tested were lethal at doses as low as 5 and 10 umol/Kg. […] All of the potent compounds belong to the 1,4 series, an observation consistent with the in vitro data discussed above.
^a Group of mice (n = 2) received selected doses of the compounds by
activity: spasms, respiratory distress, paralysis. At lethal doses, death
generally occurred within 10 min following the injection.

Row | Compound | alpha-adrenoceptor activity (in words) [1] | vesamicol receptor affinity (in words) [2] | inhibition of vesicular ACh transport / activity (in words) [3] | observable reaction in mice [4]
1 | O[C@@H]1CCCC[C@H]1N1CCC(c2ccccc2)CC1 [(dl)-vesamicol, 2-(4-phenylpiperidinyl)cyclohexanol] | significant alpha-adrenoceptor activity | nanomolar affinity | inhibit both the uptake of ACh into cholinergic synaptic vesicles and quantal release | –
2 | O[C@H]1CNCC[C@@H]1N1CCC(c2ccccc2)CC1 (relative stereo) [Compound 5, 3-Hydroxy-4-(4-phenylpiperidinyl)piperidine] | – | – | – | No observable reaction
